From patent US8691944
No constants are given. Whether binding was seen depends on the method and setting. Some entries that bind do so weakly or less than the wild type.

The chains behind the UniProt entries cited, without tags or fusion partners. Where a name states a change or a piece, a line headed by the entry shows the natural chain unless it says otherwise. A line that says so, or that is headed by a name, gives the form on record, which may keep a tag or linker. Residues count along the entry.
UniProt P09038, residues 143-288: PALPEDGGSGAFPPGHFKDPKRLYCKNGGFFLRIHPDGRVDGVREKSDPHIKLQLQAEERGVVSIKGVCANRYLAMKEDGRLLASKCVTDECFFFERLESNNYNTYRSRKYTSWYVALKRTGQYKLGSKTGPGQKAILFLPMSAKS
FNIII1-7 (P02751, residues 610-1265): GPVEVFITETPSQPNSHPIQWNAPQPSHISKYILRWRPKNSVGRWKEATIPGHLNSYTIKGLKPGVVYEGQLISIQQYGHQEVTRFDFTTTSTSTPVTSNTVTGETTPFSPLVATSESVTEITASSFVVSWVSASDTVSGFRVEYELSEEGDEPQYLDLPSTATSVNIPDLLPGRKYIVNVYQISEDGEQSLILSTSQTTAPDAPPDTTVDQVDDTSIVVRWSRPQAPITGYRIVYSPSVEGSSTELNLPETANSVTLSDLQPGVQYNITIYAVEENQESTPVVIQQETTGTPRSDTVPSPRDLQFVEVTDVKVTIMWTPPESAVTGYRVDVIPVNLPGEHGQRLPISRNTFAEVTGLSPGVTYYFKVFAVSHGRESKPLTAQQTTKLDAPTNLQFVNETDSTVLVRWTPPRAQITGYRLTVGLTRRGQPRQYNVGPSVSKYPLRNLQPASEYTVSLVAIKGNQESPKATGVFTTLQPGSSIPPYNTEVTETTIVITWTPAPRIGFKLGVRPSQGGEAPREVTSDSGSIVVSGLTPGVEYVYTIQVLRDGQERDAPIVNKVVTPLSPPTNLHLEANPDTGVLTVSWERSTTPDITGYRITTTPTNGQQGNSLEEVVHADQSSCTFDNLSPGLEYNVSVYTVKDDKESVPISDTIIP
FNIII12-13 (P02751, residues 1812-1992): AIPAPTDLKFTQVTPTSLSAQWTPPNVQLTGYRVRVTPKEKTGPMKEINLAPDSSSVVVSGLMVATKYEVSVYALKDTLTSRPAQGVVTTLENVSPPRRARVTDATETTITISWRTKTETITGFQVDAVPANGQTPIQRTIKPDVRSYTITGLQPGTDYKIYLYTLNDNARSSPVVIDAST
FNIII1-2 (P02751, form named): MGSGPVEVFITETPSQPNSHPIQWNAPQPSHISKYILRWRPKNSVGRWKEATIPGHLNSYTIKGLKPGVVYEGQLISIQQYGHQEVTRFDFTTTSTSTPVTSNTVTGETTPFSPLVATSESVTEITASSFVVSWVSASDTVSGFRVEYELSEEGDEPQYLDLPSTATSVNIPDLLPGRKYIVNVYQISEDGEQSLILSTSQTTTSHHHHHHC
FNIII2 (P02751, form named): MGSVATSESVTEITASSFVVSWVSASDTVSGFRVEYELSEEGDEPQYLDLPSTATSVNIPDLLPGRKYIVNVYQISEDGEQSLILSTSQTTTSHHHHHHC
FNIII1 (P02751, form named): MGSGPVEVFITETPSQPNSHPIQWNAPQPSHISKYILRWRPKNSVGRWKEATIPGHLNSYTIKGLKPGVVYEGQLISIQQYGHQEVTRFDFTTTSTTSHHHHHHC
FNIII1-11 (P02751, form named): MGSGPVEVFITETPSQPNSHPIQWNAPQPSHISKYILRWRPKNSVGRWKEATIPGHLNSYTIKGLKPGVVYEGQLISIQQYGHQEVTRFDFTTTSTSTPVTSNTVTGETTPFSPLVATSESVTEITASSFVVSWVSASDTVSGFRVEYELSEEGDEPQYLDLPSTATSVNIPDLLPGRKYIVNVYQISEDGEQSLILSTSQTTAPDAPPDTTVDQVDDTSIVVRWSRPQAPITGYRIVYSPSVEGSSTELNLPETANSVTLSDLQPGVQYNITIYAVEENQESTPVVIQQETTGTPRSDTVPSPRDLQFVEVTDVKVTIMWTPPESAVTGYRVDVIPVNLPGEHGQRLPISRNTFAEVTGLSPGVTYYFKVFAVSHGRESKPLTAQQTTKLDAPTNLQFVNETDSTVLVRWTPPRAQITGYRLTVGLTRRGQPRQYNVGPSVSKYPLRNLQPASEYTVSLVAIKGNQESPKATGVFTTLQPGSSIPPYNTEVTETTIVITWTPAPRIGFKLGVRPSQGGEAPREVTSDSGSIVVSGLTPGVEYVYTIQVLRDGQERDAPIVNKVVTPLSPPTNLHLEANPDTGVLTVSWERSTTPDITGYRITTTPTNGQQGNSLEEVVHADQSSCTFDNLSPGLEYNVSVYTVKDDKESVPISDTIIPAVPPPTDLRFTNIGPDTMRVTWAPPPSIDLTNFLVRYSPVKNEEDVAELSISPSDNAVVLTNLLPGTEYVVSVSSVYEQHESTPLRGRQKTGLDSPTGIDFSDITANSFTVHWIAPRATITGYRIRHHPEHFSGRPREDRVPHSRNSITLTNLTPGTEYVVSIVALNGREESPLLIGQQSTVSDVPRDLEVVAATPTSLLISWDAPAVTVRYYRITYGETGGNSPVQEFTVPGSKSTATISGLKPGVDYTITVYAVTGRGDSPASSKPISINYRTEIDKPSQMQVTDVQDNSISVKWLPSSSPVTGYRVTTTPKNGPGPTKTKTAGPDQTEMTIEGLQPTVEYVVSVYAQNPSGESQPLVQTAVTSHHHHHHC
FNIII12-V15 (HV), composite heparinII-binding and variably-spliced IIICS domains of fibronectin (P02751, form named): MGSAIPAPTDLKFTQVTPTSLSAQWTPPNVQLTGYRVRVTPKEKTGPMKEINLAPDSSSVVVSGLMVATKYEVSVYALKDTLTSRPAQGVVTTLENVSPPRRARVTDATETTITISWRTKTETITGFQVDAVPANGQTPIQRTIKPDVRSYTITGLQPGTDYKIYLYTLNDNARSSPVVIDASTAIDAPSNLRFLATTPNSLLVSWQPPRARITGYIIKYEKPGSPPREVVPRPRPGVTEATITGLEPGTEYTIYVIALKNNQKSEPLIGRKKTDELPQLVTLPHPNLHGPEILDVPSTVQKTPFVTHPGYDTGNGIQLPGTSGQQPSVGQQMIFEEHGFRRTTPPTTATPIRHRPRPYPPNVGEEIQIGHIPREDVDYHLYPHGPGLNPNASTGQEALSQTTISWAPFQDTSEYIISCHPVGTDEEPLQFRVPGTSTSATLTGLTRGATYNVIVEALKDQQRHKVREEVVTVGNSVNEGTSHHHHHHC
FNIII12-14 (P02751, form named): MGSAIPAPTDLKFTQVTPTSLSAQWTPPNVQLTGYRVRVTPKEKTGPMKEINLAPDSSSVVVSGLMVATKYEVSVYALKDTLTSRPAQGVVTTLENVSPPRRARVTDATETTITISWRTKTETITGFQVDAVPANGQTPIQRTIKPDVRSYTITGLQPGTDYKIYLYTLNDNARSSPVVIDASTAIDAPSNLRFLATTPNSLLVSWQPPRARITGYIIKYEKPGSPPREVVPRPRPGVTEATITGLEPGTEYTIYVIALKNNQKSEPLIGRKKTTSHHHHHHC
FNIII12-15 (H), heparinII-binding domain of fibronectin (P02751, form named): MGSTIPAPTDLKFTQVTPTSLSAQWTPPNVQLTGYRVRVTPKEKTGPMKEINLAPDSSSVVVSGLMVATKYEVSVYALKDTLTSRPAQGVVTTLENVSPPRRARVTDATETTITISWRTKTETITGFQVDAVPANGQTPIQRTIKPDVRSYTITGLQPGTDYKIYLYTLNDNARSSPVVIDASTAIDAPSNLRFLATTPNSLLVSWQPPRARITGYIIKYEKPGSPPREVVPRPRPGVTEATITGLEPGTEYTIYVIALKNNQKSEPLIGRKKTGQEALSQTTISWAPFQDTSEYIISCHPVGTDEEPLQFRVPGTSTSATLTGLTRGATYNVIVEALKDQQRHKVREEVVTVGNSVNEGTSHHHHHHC
UniProt P01127, residues 82-190: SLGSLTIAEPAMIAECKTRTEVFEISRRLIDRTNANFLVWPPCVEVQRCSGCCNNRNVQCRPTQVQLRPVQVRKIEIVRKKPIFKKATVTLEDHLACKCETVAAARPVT
UniProt P01137, residues 279-390: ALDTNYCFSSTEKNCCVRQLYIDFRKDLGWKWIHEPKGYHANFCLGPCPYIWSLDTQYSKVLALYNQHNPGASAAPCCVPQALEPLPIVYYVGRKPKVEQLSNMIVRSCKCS
vascular endothelial growth factor A (VEGF-A) (P15692, form named): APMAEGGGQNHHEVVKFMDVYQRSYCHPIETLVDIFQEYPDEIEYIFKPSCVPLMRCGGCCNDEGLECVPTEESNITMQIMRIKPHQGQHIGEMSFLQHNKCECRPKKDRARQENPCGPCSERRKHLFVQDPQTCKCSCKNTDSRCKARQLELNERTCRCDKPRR

target: basic fibroblast growth factor (bFGF, FGF-2) (UniProt P09038); assay: binding assay, method not restated

Substance | binding
FNIII1-2 (from UniProt P02751 610-809) | binds
FNIII1-7 (from UniProt P02751 610-1265) | binds
FNIII2 (from UniProt P02751 722-809) | binds
FNIII1 (from UniProt P02751 610-702) | binds

target: platelet-derived growth factor-BB (PDGF-BB) (UniProt P01127); assay: binding assay, method not restated

Substance | binding
FNIII1-2 (from UniProt P02751 610-809) | binds
FNIII1-7 (from UniProt P02751 610-1265) | binds
FNIII1-11 (from UniProt P02751 610-1630) | binds
FNIII12-V15 (HV), composite heparinII-binding and variably-spliced IIICS domains of fibronectin (from UniProt P02751 1812-2288) | binds
FNIII12-14 (from UniProt P02751 1812-2082) | binds
FNIII12-13 (from UniProt P02751 1812-1992) | binds
FNIII2 (from UniProt P02751 722-809) | binds
FNIII1 (from UniProt P02751 610-702) | binds
FNIII12-15 (H), heparinII-binding domain of fibronectin (from UniProt P02751 1631-1987) | binds

target: transforming growth factor-β1 (TGF-β1) (UniProt P01137); assay: binding assay, method not restated

Substance | binding
FNIII1-2 (from UniProt P02751 610-809) | binds
FNIII1-7 (from UniProt P02751 610-1265) | binds
FNIII1-11 (from UniProt P02751 610-1630) | binds
FNIII2 (from UniProt P02751 722-809) | binds
FNIII1 (from UniProt P02751 610-702) | binds

target: vascular endothelial growth factor A (VEGF-A) (UniProt P15692); assay: binding assay, method not restated

Substance | binding
FNIII1-2 (from UniProt P02751 610-809) | binds
FNIII1-7 (from UniProt P02751 610-1265) | binds
FNIII2 (from UniProt P02751 722-809) | binds
FNIII1 (from UniProt P02751 610-702) | binds

target: basic fibroblast growth factor (bFGF, FGF-2) (UniProt P09038); assay: closing statement on the data presented

Substance | binding
FNIII1-2 (from UniProt P02751 610-809) | binds
FNIII12-V15 (HV), composite heparinII-binding and variably-spliced IIICS domains of fibronectin (from UniProt P02751 1812-2288) | binds
FNIII12-15 (H), heparinII-binding domain of fibronectin (from UniProt P02751 1631-1987) | binds

target: platelet-derived growth factor-BB (PDGF-BB) (UniProt P01127); assay: closing statement on the data presented

Substance | binding
FNIII1-2 (from UniProt P02751 610-809) | binds
FNIII12-V15 (HV), composite heparinII-binding and variably-spliced IIICS domains of fibronectin (from UniProt P02751 1812-2288) | binds
FNIII12-15 (H), heparinII-binding domain of fibronectin (from UniProt P02751 1631-1987) | binds

target: T1, transforming growth factor β2 (TGF-β2) (UniProt P61812); assay: closing statement on the data presented
T1 sequence (looked up): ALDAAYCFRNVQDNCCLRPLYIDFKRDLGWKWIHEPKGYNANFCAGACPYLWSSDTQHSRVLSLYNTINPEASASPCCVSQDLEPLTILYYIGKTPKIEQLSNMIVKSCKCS

Substance | binding
FNIII1-2 (from UniProt P02751 610-809) | binds
FNIII12-V15 (HV), composite heparinII-binding and variably-spliced IIICS domains of fibronectin (from UniProt P02751 1812-2288) | binds
FNIII12-15 (H), heparinII-binding domain of fibronectin (from UniProt P02751 1631-1987) | binds

target: transforming growth factor-β1 (TGF-β1) (UniProt P01137); assay: closing statement on the data presented

Substance | binding
FNIII1-2 (from UniProt P02751 610-809) | binds
FNIII12-V15 (HV), composite heparinII-binding and variably-spliced IIICS domains of fibronectin (from UniProt P02751 1812-2288) | binds
FNIII12-15 (H), heparinII-binding domain of fibronectin (from UniProt P02751 1631-1987) | binds
